{"sequences": {"note": "By UniProt entry, the sequences of proteins in these tests, tags left out. Where a name states a change or a piece, a line headed by the entry shows the natural chain unless it says otherwise.", "UniProt Q9UNA4": "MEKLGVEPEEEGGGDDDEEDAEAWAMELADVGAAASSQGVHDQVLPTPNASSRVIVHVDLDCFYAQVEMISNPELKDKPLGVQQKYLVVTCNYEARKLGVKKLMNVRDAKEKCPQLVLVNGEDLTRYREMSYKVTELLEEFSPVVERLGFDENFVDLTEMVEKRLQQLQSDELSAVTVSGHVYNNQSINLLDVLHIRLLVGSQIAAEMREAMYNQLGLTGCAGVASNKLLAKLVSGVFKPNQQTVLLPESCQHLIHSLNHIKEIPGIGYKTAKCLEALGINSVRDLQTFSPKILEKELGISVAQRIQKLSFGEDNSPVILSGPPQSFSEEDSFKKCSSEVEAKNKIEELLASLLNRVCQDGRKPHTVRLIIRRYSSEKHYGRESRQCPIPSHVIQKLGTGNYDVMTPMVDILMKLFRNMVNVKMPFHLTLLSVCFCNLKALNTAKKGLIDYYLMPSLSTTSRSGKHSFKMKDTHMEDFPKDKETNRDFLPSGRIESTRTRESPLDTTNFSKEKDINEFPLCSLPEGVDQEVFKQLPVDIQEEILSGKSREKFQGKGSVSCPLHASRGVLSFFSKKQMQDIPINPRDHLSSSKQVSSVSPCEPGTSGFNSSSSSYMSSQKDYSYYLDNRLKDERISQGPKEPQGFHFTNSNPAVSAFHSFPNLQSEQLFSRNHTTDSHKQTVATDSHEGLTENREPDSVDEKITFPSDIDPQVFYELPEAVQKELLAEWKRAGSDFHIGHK"}, "source": "PubChem BioAssay AID588590", "about": "(National Center for Advancing Translational Sciences (NCATS), 2011)", "note": "Among all 390,000 compounds or so, about 4,000 (1%) were called active. Inconclusive results, whose numbers are uncertain, are shown with a selection of clear calls. Calls follow the shape of the dose curve; as a rule, active = well fitted inhibition curve with a large enough effect; inconclusive = small, poorly fitted or top-dose-only effect, or another doubt; inactive = no such curve, though single readings can be large or run the other way. Potencies of inconclusive entries are doubtful fits and often do not repeat. Potency is read from the fitted curve at half-maximal effect."}
{"biological_target": "DNA polymerase iota (Homo sapiens) (UniProt Q9UNA4)", "test": "qHTS for Inhibitors of Polymerase Iota", "settings": "Pol iota fluorescent replication assay, 10 min; series mostly up to 115 µM", "method_in_brief": "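Fluorescent replication assay read twice, at 0 min and 10 min after adding 50 nM (final) substrate. Enzyme (10 nM) and compounds were first incubated 15 min at room temperature; enzyme-free buffer wells were negative controls.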"}
{"compound": "CCOC(=O)c1c(NC(=O)/C=C/c2ccc(C)o2)sc(C)c1C", "Potency": "inconclusive: 28.2 µM [inhibitor, partial curve, poor fit]"}
{"compound": "Cc1ccccc1C(=O)Nc1cccc(OCc2cc(=O)n3c4c(sc3n2)CCCC4)c1", "Potency": "inactive"}
{"compound": "Cc1ccccc1OCC(=O)N/N=C/c1sc(=O)n(Cc2cccc(C(=O)O)c2)c1Cl", "Potency": "inconclusive: 15.8 µM [inhibitor, partial curve, poor fit]"}
{"compound": "C/C(=N/NC(=O)c1cccs1)c1cccs1", "Potency": "inactive"}
{"compound": "COc1cc(/C=N/NC(=O)c2sc(N)c(C#N)c2C)ccc1O", "Potency": "inconclusive: 5.01 µM [inhibitor, full curve, poor fit]"}
{"compound": "COc1ccc(S(=O)(=O)N(C(=O)C(C)C)c2ccc3oc(=O)sc3c2)cc1", "Potency": "inconclusive: 14.1 µM [inhibitor, full curve]"}
{"compound": "C/C(C/C(C)=C1/SC(=S)NC1=O)=C1\\SC(=S)NC1=O", "Potency": "active: 3.55 µM"}
{"compound": "Nc1ccc(Br)c2cccnc12", "Potency": "inconclusive: 28.2 µM [inhibitor, partial curve, poor fit]"}
{"compound": "O=C(N[C@@H](Cc1ccccc1)C(=O)OCc1ccccc1)c1nc[nH]c1C(=O)NC(c1ccccc1)c1ccccc1", "Potency": "inactive"}
{"compound": "CCc1cccc(CC)c1NC(=O)CN(CC(=O)O)CC(=O)O", "Potency": "inconclusive: 15.8 µM [inhibitor, partial curve, poor fit]"}
{"compound": "Cc1ccn2c(NC(=O)c3cccc(Cl)c3)c(-c3ccccc3)nc2c1", "Potency": "inconclusive: 89.1 µM [inhibitor, single point]"}
{"compound": "C#CCN1C(=O)S/C(=C\\c2ccc(-c3ccc(Cl)c(C(=O)O)c3)o2)C1=O", "Potency": "inconclusive: 22.4 µM [inhibitor, full curve, poor fit]"}
{"compound": "COC(=O)c1sccc1NC(=O)/C=C/C(=O)O", "Potency": "inconclusive: 1 µM [inhibitor, full curve, poor fit]"}
{"compound": "CC(C)c1ccc(NC(=O)C2CCC(CNC(=O)[C@@H]3Cc4ccccc4CN3)CC2)cc1", "note": "(some centres not stated)", "Potency": "inconclusive: 89.1 µM [inhibitor, single point]"}
{"compound": "Cc1cc(N2CCN(Cc3nc(-c4ccc(F)cc4)oc3C)CC2)cc(C)n1", "Potency": "inconclusive: 100 µM [inhibitor, single point]"}
{"compound": "NC(=O)c1ccsc1NC(=O)COC(=O)c1cc(=O)[nH]c2ccccc12", "Potency": "inconclusive: 17.8 µM [inhibitor, partial curve, poor fit]"}
{"compound": "Cc1nc(-c2ccc(Cl)cc2)sc1C1(C)CC(c2ccc(Br)cc2)=NO1", "note": "(configuration not stated)", "Potency": "inconclusive: 22.4 µM [inhibitor, partial curve, poor fit]"}
{"compound": "CC1=NN(c2ccccc2)C(=O)C1C(=O)c1ccc([N+](=O)[O-])cc1", "note": "(configuration not stated)", "Potency": "inconclusive: 15.8 µM [inhibitor, full curve, poor fit]"}
{"compound": "CCOc1ccc(-c2c(C(=O)N/N=C/c3ccoc3)nnn2-c2nonc2N)cc1", "Potency": "inconclusive: 89.1 µM [inhibitor, partial curve, poor fit]"}
{"compound": "Cc1cccc(C)c1NC(=O)Cn1c(=O)n(Cc2ccc(C(=O)NCc3ccco3)cc2)c(=O)c2sccc21", "Potency": "active: 44.7 µM"}
{"compound": "FC(F)(F)c1cccc(-c2ccc(-c3csnn3)o2)c1", "Potency": "inconclusive: 39.8 µM [inhibitor, single point]"}
{"compound": "NC(=O)N/N=C/c1ccc(-c2ccc(S(=O)(=O)Nc3ncccn3)cc2)o1", "Potency": "inconclusive: 20 µM [inhibitor, full curve]"}
{"compound": "O=C(CCC(=O)c1ccc(Cl)s1)Nc1ncccc1O", "Potency": "inconclusive: 28.2 µM [inhibitor, partial curve]"}
{"compound": "c1ccc(-n2nnnc2CN2CCOCC2)cc1", "Potency": "inconclusive: 39.8 µM [inhibitor, partial curve, poor fit]"}
{"compound": "Cc1ccccc1CN1CCN(CC2CC3C=CC2C3)CC1", "note": "(configuration not stated)", "Potency": "inconclusive: 3.16 µM [inhibitor, full curve]"}
{"compound": "Nc1ncc(-c2cc3ccccc3oc2=O)s1", "Potency": "inconclusive: 39.8 µM [inhibitor, partial curve, poor fit]"}
{"compound": "Cc1ccc(S(=O)(=O)NC2(C(F)(F)F)NC(=O)N(c3ccc(F)cc3)C2=O)cc1", "note": "(configuration not stated)", "Potency": "inconclusive: 79.4 µM [inhibitor, single point]"}
{"compound": "Cc1cccc(NC(=O)CN2C(=O)N/C(=C\\c3ccc(-c4cccc(C(=O)O)c4)o3)C2=O)c1", "Potency": "inconclusive: 35.5 µM [inhibitor, partial curve, poor fit]"}
{"compound": "CCC(=O)c1ccc(OCC(=O)Nc2nc(C)cs2)cc1", "Potency": "inactive"}
{"compound": "CC1CCN(S(=O)(=O)c2ccc3c(c2)CCN3C(=O)Nc2cccc(Br)c2)CC1", "Potency": "inactive"}
{"compound": "Cc1ccc(CC2S/C(=C(/C#N)C(=O)NCc3ccco3)N(c3ccccc3)C2=O)cc1", "note": "(configuration not stated)", "Potency": "inactive"}
{"compound": "Cc1nc(/N=C(\\N)NC(=O)c2ccccc2)nc2ccccc12", "Potency": "inconclusive: 70.8 µM [inhibitor, partial curve]"}
{"compound": "CS(=O)(=O)N(Cc1nc2sc3c(c2c(=O)[nH]1)CCCC3)C1CCCCC1", "Potency": "inconclusive: 20 µM [inhibitor, single point]"}
{"compound": "CCCCNC(=S)Nc1ccc(F)cc1", "Potency": "inactive"}
{"compound": "Cc1cc(N2C(=O)C(O)=C(C(=O)c3cc4ccccc4o3)C2c2cccc(Br)c2)no1", "note": "(configuration not stated)", "Potency": "inactive"}
{"compound": "O=C(Nc1nc(-c2ccccn2)cs1)c1ccccc1-n1cnnn1", "Potency": "inconclusive: 14.1 µM [inhibitor, partial curve]"}
{"compound": "COC(=O)C1CCN(C(=O)CSc2nnc(-c3ccccc3)o2)CC1", "Potency": "inactive"}
{"compound": "COc1ccc2nc(N3CCCCC3)c(/C=C3\\SC(=S)NC3=O)cc2c1", "Potency": "inactive"}
{"compound": "COc1cccc(OC)c1OCC(O)CN1CCN(c2ccc(F)cc2)CC1", "note": "(configuration not stated)", "Potency": "inconclusive: 22.4 µM [inhibitor, partial curve, poor fit]"}
{"compound": "CN(c1ccccc1C(=O)O)S(=O)(=O)c1ccc2c3c(cccc13)C(=O)N2", "Potency": "inconclusive: 7.94 µM [inhibitor, full curve, poor fit]"}
{"compound": "COC(=O)CCS(=O)(=O)c1nc(-c2ccccc2)cc(C(F)(F)F)n1", "Potency": "inconclusive: 20 µM [inhibitor, single point]"}
{"compound": "COc1ccc(/C=N/Nc2nncc3ccccc23)cc1", "Potency": "inactive"}
